Measured values taken from PubChem BioAssay AID493014 (National Center for Advancing Translational Sciences (NCATS), 2011).
The list shows a part of the results. Shown are side measurements of this screen, not its main read-out; they come without a call. The list favours compounds with an active or inconclusive main result. The note in brackets gives the kind of curve behind each potency; many fits are weak.

Assay: qHTS Assay to Find Inhibitors of Chronic Active B-Cell Receptor Signaling
Conditions: ABC-DLBCL IkBa-CBG/CBR reporter, luminescence ratio (green luciferase fused to IkBa over red control in TMD8 lymphoma cells), 4 h
Procedure, shortened: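 Doxycycline induced both beetle luciferases in TMD8 lymphoma cells; IKK-driven degradation limits the IkappaBalpha-fused green signal, while red luminescence normalises for cell number and nonspecific effects. Compounds tested up to 46 uM, 4 hrs.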

[1] = measured here: CBR red luminescence, cell number
[2] = measured here: IkBa-CBG green luminescence

SMILES	AC50 [1]	AC50 [2]
CCOC(=O)c1cc(C)nc(Sc2ccc(C)cc2)c1C#N	35.5 µM [rising, single point]	11.2 µM [falling, partial curve, poor fit]
O=C(COc1ccccc1F)NNC(=O)c1cc(Br)ccc1Cl	16.4 µM [rising, partial curve, poor fit]	–
CN1CCCC(C#CC(O)(c2ccccc2)c2ccccc2)C1 (stereo unspecified)	35.5 µM [rising, single point]	–
O=C(NCC1CCCO1)C1CC(=O)N(c2cccc(Cl)c2)C1 (stereo unspecified)	6.31 µM [rising, partial curve, poor fit]	–
COc1ccc(NC(=O)CC2C(=O)N(c3ccc(Cl)cc3)C(=S)N2CCc2ccncc2)cc1 (stereo unspecified)	35.5 µM [falling, single point]	–
Cc1[nH]c2ccccc2c1/C=C/c1nc2ccccc2c(=O)n1CCO	7.94 µM [falling, partial curve]	–
Cc1[nH]c2ccccc2c(=O)c1C(=O)/C=C/c1ccccc1	3.98 µM [falling, full curve]	–
C=CCc1cccc(/C=N/c2ncn[nH]2)c1O	18.4 µM [falling, single point]	32.6 µM [rising, partial curve, poor fit]
COc1ccc2oc(C(=O)OCC(=O)N3CCCC(C)C3)c(C)c2c1 (stereo unspecified)	8.2 µM [falling, partial curve]	–
Cc1cccc(C2C=C(c3ccc(F)cc3)Nc3nc4ccccc4n32)c1 (stereo unspecified)	8.91 µM [falling, partial curve]	–
O=C(NCC1CCCO1)C(c1ccc(F)cc1)N(CCCN1CCOCC1)C(=O)c1ccc(-c2ccccc2)[nH]1 (stereo unspecified)	–	20 µM [rising, partial curve, poor fit]
CC(=O)OCCNc1cc(Sc2nc3ccccc3[nH]2)c2nonc2c1[N+](=O)[O-]	–	5.17 µM [falling, partial curve, poor fit]
CCCC(C)C(=O)Nc1cc([N+](=O)[O-])ccc1Cl (stereo unspecified)	0.224 µM [rising, full curve, poor fit]	–
Nc1c(C(O)(C(F)(F)F)C(F)(F)F)cc(C(O)(C(F)(F)F)C(F)(F)F)c2ccccc12	29.1 µM [falling, single point]	–
Cc1sc(N)nc1C12CC3CC(CC(C3)C1)C2	31.6 µM [rising, partial curve, poor fit]	–
CC(C)[C@H](NC(=O)OC(C)(C)C)c1nnc(S(=O)(=O)Cc2c(F)cccc2Cl)o1	0.92 µM [falling, full curve, poor fit]	–
O=C(NCCc1ccccc1)c1ccc(NC(=O)c2cccnc2)cc1	35.5 µM [rising, single point]	–
CC(C)c1ccc(NC(=O)c2ccc(Br)o2)cc1	–	25.9 µM [falling, partial curve, poor fit]
Nc1nnc(SCC(=O)c2ccccc2)s1	14.1 µM [falling, single point]	–
Oc1ccccc1N=Cc1ccc[nH]1	2.31 µM [falling, full curve]	–
CCc1nn(CC(=O)NCCCN2CCOCC2)c(=O)c2cc3sccc3n12	12.6 µM [rising, partial curve]	–

SMILES	AC50 [1]	AC50 [2]
COc1ccc(C2C=C(c3ccc(C)c(C)c3)Nc3ncnn32)c(OC)c1OC (stereo unspecified)	0.562 µM [rising, full curve]	7.94 µM [falling, partial curve, poor fit]
Cc1cc(C)n2c(Br)c(CSc3nc4ccccc4s3)nc2n1	23.1 µM [rising, partial curve, poor fit]	–
CCN(CC)c1nc2ccccc2n2cnnc12	12.6 µM [rising, partial curve, poor fit]	–
COc1ccc(-c2noc(CN(C)Cc3ccccc3)n2)c(OC)c1OC	0.501 µM [rising, full curve, poor fit]	–
COc1ccc(CNC(=O)COc2ccc(Br)c(C)c2)cc1	7.94 µM [falling, partial curve, poor fit]	–
C=CCOc1c(CNc2ccc(C(=O)O)cc2)cccc1OCC	35.5 µM [falling, single point]	–
O=[N+]([O-])c1ccc(C=Nc2cccc3ccccc23)s1	22.4 µM [rising, single point]	–
COc1ccccc1C(OC(=O)c1cccs1)C(=O)NCc1ccco1 (stereo unspecified)	31.6 µM [falling, single point]	–
CC(C)c1nnc(NC(=O)c2nc(S(=O)(=O)Cc3ccccc3F)ncc2Cl)s1	22.4 µM [falling, single point]	11.2 µM [rising, partial curve, poor fit]
CNC(=O)C(=O)N/N=C/c1ccc(Br)cc1	35.5 µM [rising, partial curve, poor fit]	–
CCOC(=O)C1CCCN(C(=O)c2cc(CN3C(=O)c4ccccc4C3=O)ccc2OC)C1 (stereo unspecified)	29.1 µM [rising, single point]	–
CC(=O)c1sc(NC(=O)COc2ccccc2)nc1C	3.55 µM [falling, full curve, poor fit]	–
CCOc1cc(/C=N/NC(=O)c2ccc(-c3csc(Nc4ccc(C)cc4)n3)cc2)ccc1OCC(=O)O	2 µM [falling, full curve]	–
Fc1cccc(NC(=S)N2CCN(c3ccccn3)CC2)c1	5.62 µM [rising, single point]	–
O=[N+]([O-])c1ccccc1/C=C/C=N/n1c(-c2ccco2)n[nH]c1=S	35.5 µM [falling, single point]	–
COc1ccc(NC(=O)c2ccccc2)cc1NS(=O)(=O)c1ccc(F)cc1	13 µM [rising, partial curve, poor fit]	–
O=C(Nc1cccc(C(F)(F)F)c1)c1cccnc1NCCO	28.2 µM [rising, single point]	–
CCOC(=O)N1CCN(C(=O)C2CCN(S(=O)(=O)c3ccccc3)CC2)CC1	25.9 µM [rising, partial curve, poor fit]	–
COc1cc(C(=O)OC(C)C(=O)N2CCCC2)cc2c1OCCO2 (stereo unspecified)	6.51 µM [rising, single point]	–
Cc1n[nH]c(=S)n1/N=C/c1ccc(OCc2ccc(Cl)cc2Cl)cc1	29.1 µM [falling, single point]	–
CC(CSc1nnnn1-c1ccccc1)Cn1c(N2CCCC2)nc2c1c(=O)[nH]c(=O)n2C (stereo unspecified)	–	5.17 µM [falling, partial curve, poor fit]

SMILES	AC50 [1]	AC50 [2]
O=c1cc(-c2ccccc2)[nH]c2nc3ccccc3n12	0.259 µM [falling, full curve]	–
COc1ccc(CCNCC(O)COc2ccc(OC)cc2C(C)(C)C)cc1 (stereo unspecified)	31.6 µM [falling, single point]	–
O=C(NNC(=O)c1ccccc1[N+](=O)[O-])c1ccccc1[N+](=O)[O-]	10 µM [falling, single point]	–
COc1ccccc1NC(=O)CSc1nc(O)c(Cc2ccccc2)c(=O)[nH]1	16.4 µM [falling, single point]	–
O=C(COC(=O)c1ccccc1NC(=O)c1ccco1)NC1CC1	11.2 µM [falling, partial curve, poor fit]	–
c1ccc2nc(-c3ccc(N4CCOCC4)cc3)ccc2c1	0.0058 µM [rising, full curve, poor fit]	–
CCC(=O)n1nc(-c2ccccc2)nc1SCC(=O)Nc1ccc(C)cc1	4.47 µM [falling, full curve, poor fit]	–
COc1ccccc1NC(=O)CN(Cc1ccco1)C(=O)c1cccs1	23.1 µM [falling, single point]	–
CCOc1cc(NC(=O)C2CC2)c(OCC)cc1NC(=O)c1ccccn1	1.46 µM [rising, full curve, poor fit]	–
C#CCOCCOCCOCCNc1nc(N2CCN(C(=O)C([C@@H](C)CC)n3cc(C(N)CO)nn3)CC2)nc(N2CCN(C(=O)[C@H](CCC(=O)O)n3cc(C(N)[C@H](C)CC)nn3)CC2)n1 (stereo partly specified)	5.62 µM [rising, single point]	–
COc1cc2c(cc1OC)N1C(=O)CC(OCC(=O)O)C3C4CC5(CCN5C(=O)C4=O)C2C31 (stereo unspecified)	11.2 µM [falling, partial curve, poor fit]	–
CCN(CC(=O)Nc1cc(Cl)ccc1C)C(=O)C1CC1	–	18.4 µM [falling, partial curve, poor fit]
O=C(Nc1cccc(Cl)c1)c1ccc(Cn2cc(Cl)cn2)cc1	5.17 µM [falling, partial curve, poor fit]	–
COc1cc(OC)cc(C(=O)N/N=C\c2ccoc2)c1	3.55 µM [falling, partial curve]	17.8 µM [falling, single point]
CC1=C[C@H]2Cc3cc(C)cc(C)c3S(=O)(=O)[C@@H]2C=C1	–	20.6 µM [rising, partial curve, poor fit]
CC1CCN(CCOCCOc2ccc(Br)cc2Cl)CC1	29.1 µM [falling, partial curve, poor fit]	–
COc1ccc(C2(O)CC3CCC(C2)N3c2cc(C)nc(-c3ccccc3)n2)cc1 (stereo unspecified)	12.6 µM [falling, partial curve, poor fit]	–
COc1ccccc1Nc1nc(N)nc(CSC(=S)N2CCN(c3ccccc3)CC2)n1	0.251 µM [rising, full curve, poor fit]	–
CC1=NN=C(c2ccccc2)C(c2c[nH]c3ccccc23)N1O (stereo unspecified)	0.058 µM [rising, full curve, poor fit]	–

Some of the entries above in another layout.

| SMILES | AC50 [1] | AC50 [2] |
| --- | --- | --- |
| CCC(=O)n1nc(-c2ccccc2)nc1SCC(=O)Nc1ccc(C)cc1 | 4.47 µM [falling, full curve, poor fit] | – |
| COc1ccccc1NC(=O)CN(Cc1ccco1)C(=O)c1cccs1 | 23.1 µM [falling, single point] | – |
| C#CCOCCOCCOCCNc1nc(N2CCN(C(=O)C([C@@H](C)CC)n3cc(C(N)CO)nn3)CC2)nc(N2CCN(C(=O)[C@H](CCC(=O)O)n3cc(C(N)[C@H](C)CC)nn3)CC2)n1 (stereo partly specified) | 5.62 µM [rising, single point] | – |
| COc1cc(OC)cc(C(=O)N/N=C\c2ccoc2)c1 | 3.55 µM [falling, partial curve] | 17.8 µM [falling, single point] |
| COc1ccc(C2(O)CC3CCC(C2)N3c2cc(C)nc(-c3ccccc3)n2)cc1 (stereo unspecified) | 12.6 µM [falling, partial curve, poor fit] | – |
